In the experiment the target is Histone-lysine N-methyltransferase EHMT2 (Homo sapiens) (UniProt Q96KQ7). In words: qHTS Assay for Inhibitors of Histone Lysine Methyltransferase G9a. Also: nearly all actives have a fitted effect of over 75% in size. As to conditions: G9a H3K9 monomethylation, AlphaScreen, 2 h. From the text:
Methylated lysines, on the N-terminal tails of histone proteins serve as epigenetic markers to recruit factors that can then modify local chromatin structure to lead to functional consequences. G9a and other members of the SUV39 family of the SET domain-containing superfamily of histone lysine methyltransferases (HMT) have been identified to specifically methylate Lys9 of histone H3 (H3K9). G9a catalyzes the mono- and di-methylation of H3K9 in mammalian euchromatic regions, where the resulting H3K9me2 is indicative of transcriptional repression. […] The inhibition of G9a will result in transcriptional activation and work synergistically with DNA methyltransferase and histone deacetylase inhibitors, to kill cancer cells. This qHTS assay for identification of G9a inhibitors is a chemiluminescence based AlphaScreen (PerkinElmer). Methylation of biotinylated-histone peptide is measured through specific antibody-based detection, in conjunction with streptavidin-coated donor and anti-IgG antibody-coated acceptor beads. The method is particularly well suited for detection of inhibitors acting by the desired histone peptide competitive mechanism and is applicable to testing other HMTs. Although AlphaScreen has significant advantages with its utility in a variety of epigenetic target assays, the primary screening data provided in this deposition should be used with caution due to the prevalence of screening artifacts. An AlphaScreen counterscreen is highly recommended to be run against any putative actives to eliminate non specific artifacts. Alternatively, one can use other AlphaScreen assays in PubChem to filter out promiscuous hits. Quinn et al. A chemiluminescence-based method for identification of histone lysine methyltransferase inhibitors. Mol Biosyst 6(5): 782-8. 2010. PMID: 20567762 [2] Baell,Holloway. New substructure filters for removal of pan assay interference compounds (PAINS) from screening libraries and for their exclusion in bioassays. J Med Chem. 53(7):2719-40. 2010. PMID: 20131845 NIH Molecular Libraries Probe Production Network [MLPCN] NIH Chemical Genomics Center [NCGC] Structural Genomics Consortium (SGC) NIH Grant: 5U54 MH084681-02
To each well of a 1,536w plate, 2ul of HMT enzyme (final 20nM) were added, using a nanoliter dispenser. The G9a- and GLP-inhibitor BIX-01294 (CID: 25150857) are used as an intraplate control, with a 16-point titration in duplicate. A Kalypsys pin-tool transferred 23nl of library compound solution in DMSO to each well. Following a 15 min incubation of enzyme with compounds at room temperature, 1ul mixture of b-H3K9 peptide substrate (final 500nM) and SAM cofactor (final 20uM) were added. Reactions were allowed to proceed at room temperature for 2 hours. Methylated b-H3K9 peptide product was detected with 0.5 ug/mL rabbit polyclonal anti-monomethyl histone H3K9 antibody (Abcam Inc., Cambridge, MA) and 20 ug/mL each streptavidin-coated donor and anti-rabbit IgG acceptor AlphaScreen beads. Antibody and beads were added in a 1ul dispense, for a final volume of 4ul, and plates were incubated, protected from the light, for 10 min at room temperature. Microplates were then read on an EnVision multilabel plate reader using the 1,536 plate HTS AlphaScreen aperture (excitation time 80 ms, measurement time 240 ms).
A general note: Quantitative high-throughput screening tests each substance at several concentrations.

The chains behind the UniProt entries cited, without tags or fusion partners. Where a name states a change or a piece, a line headed by the entry shows the natural chain unless it says otherwise.
UniProt Q96KQ7: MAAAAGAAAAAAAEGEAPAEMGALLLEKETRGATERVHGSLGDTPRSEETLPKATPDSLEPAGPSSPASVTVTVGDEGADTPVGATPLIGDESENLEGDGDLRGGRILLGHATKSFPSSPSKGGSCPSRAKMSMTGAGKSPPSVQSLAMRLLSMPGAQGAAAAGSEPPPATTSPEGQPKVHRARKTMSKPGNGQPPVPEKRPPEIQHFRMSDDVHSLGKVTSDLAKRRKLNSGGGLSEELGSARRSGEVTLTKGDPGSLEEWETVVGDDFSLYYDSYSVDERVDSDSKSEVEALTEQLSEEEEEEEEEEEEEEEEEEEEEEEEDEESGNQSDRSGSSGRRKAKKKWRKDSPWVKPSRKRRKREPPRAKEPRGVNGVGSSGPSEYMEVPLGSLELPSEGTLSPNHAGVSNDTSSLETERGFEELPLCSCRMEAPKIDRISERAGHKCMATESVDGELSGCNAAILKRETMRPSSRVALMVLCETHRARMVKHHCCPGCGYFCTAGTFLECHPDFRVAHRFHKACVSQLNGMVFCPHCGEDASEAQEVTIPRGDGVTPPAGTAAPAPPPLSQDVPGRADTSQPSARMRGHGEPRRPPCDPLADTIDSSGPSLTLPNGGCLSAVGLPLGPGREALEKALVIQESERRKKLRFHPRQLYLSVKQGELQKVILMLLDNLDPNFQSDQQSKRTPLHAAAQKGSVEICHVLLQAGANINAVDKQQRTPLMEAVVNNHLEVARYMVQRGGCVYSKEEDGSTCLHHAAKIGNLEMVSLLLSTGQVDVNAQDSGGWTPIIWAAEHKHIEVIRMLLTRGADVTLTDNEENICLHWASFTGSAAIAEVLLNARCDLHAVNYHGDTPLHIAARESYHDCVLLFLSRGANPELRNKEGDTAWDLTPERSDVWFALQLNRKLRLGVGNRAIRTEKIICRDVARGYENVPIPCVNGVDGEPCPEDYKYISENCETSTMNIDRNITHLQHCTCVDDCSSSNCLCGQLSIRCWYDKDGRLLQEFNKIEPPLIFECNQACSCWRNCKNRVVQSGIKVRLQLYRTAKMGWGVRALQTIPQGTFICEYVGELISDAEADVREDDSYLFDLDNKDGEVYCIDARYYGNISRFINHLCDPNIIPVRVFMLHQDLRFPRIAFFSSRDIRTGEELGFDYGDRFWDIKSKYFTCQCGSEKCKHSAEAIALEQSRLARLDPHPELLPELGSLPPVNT

The hits were mostly taken out for another list; the other results follow. Results filed as inconclusive are left out. Calls of active or inactive are those of the source. Calls follow the shape of the dose curve; as a rule, active = well fitted inhibition curve with a large enough effect; inconclusive = small, poorly fitted or top-dose-only effect; inactive = no such curve, though single readings can be large or run the other way.
% is scaled to controls: 0 for no effect and ±100 for the full control effect.

`CN1C2CCC1CC(OC(=O)C(O)c1ccccc1)C2` (stereo not given): the activity, negative = inhibition (at 12.7 µM (top of the series)) was inactive: 13.6%.

For the compound `Cc1cc(=O)oc2cc(OCc3ccccc3)ccc12`, the activity, negative = inhibition (at 102 µM (top of the series)) was inactive: 63.6%.

In the case of `CN1[C@@H]2CC[C@H]1CC(OC(=O)[C@@H](O)c1ccccc1)C2` (stereo not given in full), the activity, negative = inhibition reads like this: (at 2.33 µM (top of the series)) inactive: -32.6%; (at 59 µM (top of the series)) inactive: -17.9%.

With `CN1[C@@H]2CC[C@H]1CC(OC(=O)C(O)c1ccccc1)C2` (stereo not given in full), the activity, negative = inhibition (at 59 µM (top of the series)) is inactive: -4.58%.
